Assay results reported in patent US5958881A, “Composition containing VIP for injection and a method of enhancing visualization of tissues during medical procedures” (priority 1992, dated 1999).
“Also recorded” adds a separate entry of the source. At least one peptide structure holds a part that was inferred or is arguable (an end, a ring closure or a residue).

What was measured:
mouse colon = conditions: cited from earlier work
cat duodenum = conditions: cited from earlier work
antral motility = experiment: Upper gastrointestinal endoscopy, antral motility recorded on videotape; type: in vivo, human; conditions: for effect on antral motility: third patient
[1] = system: guinea pig small intestine; conditions: cited from earlier work
opossum duodenum = conditions: cited from earlier work
rabbit small intestine = conditions: cited from earlier work

Compound: CC[C@H](C)[C@H](NC(=O)[C@H](CO)NC(=O)[C@H](CC(N)=O)NC(=O)[C@H](CC(C)C)NC(=O)[C@H](Cc1ccc(O)cc1)NC(=O)[C@H](CCCCN)NC(=O)[C@H](CCCCN)NC(=O)[C@@H](NC(=O)[C@H](C)NC(=O)[C@H](CCSC)NC(=O)[C@H](CCC(N)=O)NC(=O)[C@H](CCCCN)NC(=O)[C@H](CCCNC(=N)N)NC(=O)[C@H](CC(C)C)NC(=O)[C@H](CCCNC(=N)N)NC(=O)[C@@H](NC(=O)[C@H](Cc1ccc(O)cc1)NC(=O)[C@H](CC(N)=O)NC(=O)[C@H](CC(=O)O)NC(=O)[C@@H](NC(=O)[C@H](Cc1ccccc1)NC(=O)[C@@H](NC(=O)[C@H](C)NC(=O)[C@H](CC(=O)O)NC(=O)[C@H](CO)NC(=O)[C@@H](N)Cc1c[nH]cn1)C(C)C)[C@@H](C)O)[C@@H](C)O)C(C)C)C(=O)N[C@@H](CC(C)C)C(=O)N[C@@H](CC(N)=O)C(N)=O [VIP, vasoactive intestinal peptide]
- contractions of the layers of smooth muscle (mouse colon): stimulated contractions
- contractions of the layers of smooth muscle (cat duodenum): stimulated contractions
- onset of effect on gastrointestinal contractions (antral motility; after injection of the appropriate dose): halted almost immediately; also recorded: almost immediate
- duration of paralytic effect (antral motility; after injection of the appropriate dose into the blood stream): about seven
- antral contractions (antral motility; first patient, additional dose of 20 ng VIP per kg, remainder of the study): completely abolished
- number of contractions (antral motility; first patient, average after 5 ng VIP per kg bodyweight, average of 8 before VIP): 4 contractions per 2 minute interval
- frequency of gastric antral contractions (antral motility; first patient, infusion of 5 ng/kg VIP): small but significant decrease
- effect on gastrointestinal motility or blood pressure (antral motility; second patient, 5 ng/kg): no significant effect
- number of contractions occurring (antral motility; second patient, 20 ng VIP/kg): barely affected
- effect on gastrointestinal motility or blood pressure (antral motility; second patient, 20 ng/kg): no significant effect
- gastrointestinal motility (antral motility; second patient, VIP infusion of 100 ng/kg): significant reduction
- number of contractions (antral motility; second patient, after first dose of 5 ng VIP per kilogram): 6 contractions per 2 minute interval
- effect on antral motility (antral motility; 0.02 μg/kg): no effect
- effect on antral motility (antral motility; 0.05 μg/kg): no effect
- effect on antral motility (antral motility; 0.1 μg/kg): no effect
- contractions of the layers of smooth muscle [1]: stimulated contractions
- effect on duodenum muscle (opossum duodenum): stimulated contractions
- contractions of the layers of smooth muscle (rabbit small intestine): stimulated contractions
